Reference: PubChem BioAssay AID493014 (National Center for Advancing Translational Sciences (NCATS), 2011)
The list shows a part of the results. Shown are side measurements of this screen, not its main read-out; they come without a call. The list favours compounds with an active or inconclusive main result. The note in brackets gives the kind of curve behind each potency; many fits are weak.

Experiment: qHTS Assay to Find Inhibitors of Chronic Active B-Cell Receptor Signaling
Conditions: ABC-DLBCL IkBa-CBG/CBR reporter, luminescence ratio (green luciferase fused to IkBa over red control in TMD8 lymphoma cells), 4 h
Outline: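 TMD8 ABC-DLBCL cells carrying doxycycline-inducible green luciferase fused to IkappaBalpha plus unfused red luciferase were exposed to compounds (up to 46 uM) for 4 hrs at 37C. Activity came from the overlap-corrected green/red luminescence ratio.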

[1] = measured here: CBR red luminescence, cell number
[2] = measured here: IkBa-CBG green luminescence

| Structure (SMILES) | AC50 [1] | AC50 [2] |
| --- | --- | --- |
| Cc1ccc2nc(-c3ccc4c(c3)NC(=O)CO4)cn2c1 | 0.891 µM [rising, full curve, poor fit] | – |
| COc1ccccc1/C=C/C(=O)Nc1ccc2c(c1)OCCO2 | 20.6 µM [falling, partial curve, poor fit] | – |
| Cc1nc(NC(=O)CSc2nnc3ccccn23)c(Cl)cc1Cl | 28.2 µM [falling, single point] | – |
| COc1ccc(-c2nc3c4ccccc4n(CC(=O)N4CCN(c5ccc(F)cc5)CC4)c(=O)n3n2)cc1 | 7.94 µM [falling, single point] | – |
| O=C(c1cc(-c2ccc3c(c2)OCO3)on1)N1CCN(c2ccccc2)CC1 | 7.94 µM [falling, partial curve] | – |
| COc1ccc(CC(NC(C)=O)C(=O)NC2CCN(C(=O)Nc3ccc(C#N)cc3)CC2)cc1OC (stereo not given) | 3.26 µM [rising, partial curve] | – |
| CCOCCCNC(=S)NCCNc1nc2c(C)cccc2cc1C#N | 23.1 µM [falling, single point] | – |
| CN1CC2=Cc3ccccc3OC23Oc2ccccc2C=C3C1 | 11.2 µM [falling, partial curve] | – |
| Cc1ccsc1/C=C1/SC(N2CCOCC2)=NC1=O | 29.1 µM [rising, single point] | – |
| O=C(CSc1nc2c([nH]c3ccccc32)c(=O)n1-c1cccc(Cl)c1)N1CCOCC1 | 18.4 µM [falling, single point] | – |
| COc1ccc(OC)c(C(=O)c2coc3ccc(O)cc23)c1 | 35.5 µM [falling, single point] | – |
| O=C(COC(=O)c1ccc[nH]c1=O)NCCc1ccc(Cl)cc1Cl | 14.1 µM [rising, partial curve] | – |
| CC(C)(C)NC(=O)C(=O)NNC(=O)c1cccc(F)c1 | 12.6 µM [falling, single point] | – |
| CCC(NC(=O)c1ccccc1NC(=O)c1ccccc1)C(=O)O (stereo not given) | 2.82 µM [falling, full curve] | – |
| O=C(O)CSc1nnc(C2CC2)n1-c1ccccc1 | 0.231 µM [rising, full curve, poor fit] | – |
| Cc1ccc(NC(=O)CC2SC(=O)N(c3ccccc3)C2=O)cc1 (stereo not given) | 6.51 µM [falling, full curve] | – |
| CCO/N=C1\C(=O)N(c2ccccc2)c2ccccc21 | 11.2 µM [rising, partial curve, poor fit] | – |
| COCCn1c(=O)[nH]c2cc(C(=O)N3CCN(c4ccccc4F)CC3)ccc2c1=O | 1.12 µM [falling, full curve, poor fit] | – |
| CCc1ccc(C(=O)CN(C#N)c2nc(C)cc(C)n2)cc1 | 6.31 µM [falling, single point] | – |
| O=C(NNc1ccc(C(F)(F)F)cc1[N+](=O)[O-])c1ccc(NS(=O)(=O)c2ccc(F)cc2)cc1 | 25.9 µM [falling, partial curve, poor fit] | – |
| CC1(C)C(C=C(Cl)Cl)C1C(=O)NC(O)C(=O)c1ccccc1 (stereo not given) | 15.8 µM [falling, partial curve, poor fit] | – |

| Structure (SMILES) | AC50 [1] | AC50 [2] |
| --- | --- | --- |
| CC1CC2(C)Oc3ccccc3CC2C(C)C1CNCCCN(C)C (stereo not given) | 8.91 µM [falling, partial curve] | – |
| O=C(NCCO)c1cccc(Cl)c1 | 0.206 µM [rising, partial curve, poor fit] | – |
| O=C(CCc1ccccc1)Nc1cc2c(cc1C(=O)O)OCCCO2 | 5.8 µM [falling, partial curve] | – |
| COc1cccc(C(C(=O)NC2CCCC2)N(C(=O)c2ccco2)c2ccccc2)c1OC (stereo not given) | 1 µM [falling, partial curve, poor fit] | – |
| CCCc1ccc(C(=O)O/N=C(\N)c2ccccn2)cc1 | 20 µM [falling, single point] | – |
| COc1ccc(C(=O)OCC#CCSc2nnc(-c3cccc4ccccc34)o2)cc1 | 3.26 µM [falling, partial curve, poor fit] | – |
| O=C(CSc1nnnn1-c1cccnc1)Nc1ccccc1F | 7.94 µM [falling, single point] | – |
| CCOC(=O)c1cnc(-n2nc(C)cc2C)nc1Nc1cccc(C(=O)O)c1 | 7.08 µM [falling, partial curve] | – |
| Cc1cccc(OCc2nnc(SCC(=O)Nc3cccc(C(=O)N4CCOCC4)c3)n2C)c1 | 0.00461 µM [rising, full curve, poor fit] | – |
| O=[N+]([O-])c1ccc(Cl)c(/C=N/Nc2nc(N3CCOCC3)nc(N3CCOCC3)n2)c1 | 29.1 µM [rising, single point] | – |
| COc1ccc2nc(NC(=O)c3ccc(Br)s3)sc2c1 | 7.31 µM [falling, partial curve, poor fit] | – |
| CCOc1ccc(/C=N/NC(=O)Cc2csc(Nc3cccc(C(F)(F)F)c3)n2)cc1 | 14.6 µM [falling, partial curve] | 25.9 µM [rising, partial curve, poor fit] |
| CCOC(=O)N1CCc2c(sc3c2C(=O)NC(c2cc(OC)c(O)c(OC)c2)N3)C1 (stereo not given) | 15.8 µM [falling, partial curve, poor fit] | – |
| O=C(Nc1cccc(Cl)c1Cl)c1cc(S(=O)(=O)NCCc2ccccc2)ccc1F | 11.2 µM [falling, partial curve, poor fit] | – |
| CCOC(=O)C1CCCN(C(=O)c2cccc(S(=O)(=O)N3CCCC3)c2)C1 (stereo not given) | 0.0082 µM [rising, full curve, poor fit] | – |
| Cc1ccc(/C=N/NC(=O)c2cccs2)cc1[N+](=O)[O-] | 12.6 µM [falling, partial curve] | – |
| Cc1ccccc1-n1c(SCC(=O)N/N=C/c2c(C)nn(-c3ccccc3)c2C)nc2ccccc2c1=O | 0.184 µM [rising, full curve, poor fit] | 2.31 µM [falling, partial curve, poor fit] |
| O=C(CP(=O)(c1ccccc1)c1ccccc1)Nn1cnnc1 | 3.55 µM [rising, partial curve, poor fit] | – |
| Cc1cccc(N=Nc2cnc(N)s2)c1 | 3.55 µM [rising, single point] | – |
| CC(=O)OC1OCCOC1NC(=S)Nc1cccc(C(F)(F)F)c1 (stereo not given) | 0.398 µM [rising, full curve, poor fit] | – |
| N#C/C(=C\c1cccc(O)c1)C(=O)Nc1ccc2c(c1)OCCO2 | 22.4 µM [falling, partial curve] | – |

Full records, quoted from the list:
O=[N+]([O-])c1ccc(Cl)c(/C=N/Nc2nc(N3CCOCC3)nc(N3CCOCC3)n2)c1 as listed: AC50 [1]: 29.1 µM [rising, single point]
O=C(CCc1ccccc1)Nc1cc2c(cc1C(=O)O)OCCCO2 as listed: AC50 [1]: 5.8 µM [falling, partial curve]
O=C(c1cc(-c2ccc3c(c2)OCO3)on1)N1CCN(c2ccccc2)CC1 as listed: AC50 [1]: 7.94 µM [falling, partial curve]

The list goes on:

| Structure (SMILES) | AC50 [1] | AC50 [2] |
| --- | --- | --- |
| O=C(Nc1sccc1C(=O)N1CCOCC1)c1cccnc1 | 29.1 µM [falling, partial curve, poor fit] | – |
| O=C(/C=C/c1ccco1)NC(=S)Nc1ccccn1 | 16.4 µM [falling, partial curve] | – |
| NC(=O)C1CCCN(C(=S)NCc2ccc3c(c2)OCO3)C1 (stereo not given) | 35.5 µM [falling, single point] | – |
| COc1ccc(CNC(=O)c2cc(=O)c3cc(C)ccc3o2)cc1 | 3.55 µM [rising, full curve] | – |
| Cc1cccc(C)c1NC(=O)CN(C)C(C)C(=O)Nc1ccccc1-c1ccccc1 (stereo not given) | 35.5 µM [falling, single point] | – |
| COc1ccc(CNc2nc(C)cc(C)c2C#N)cc1 | 7.94 µM [rising, partial curve, poor fit] | – |
| Cn1c(=NC(=O)C2CC2)sc2cc(F)cc(F)c21 | 0.164 µM [falling, full curve, poor fit] | – |
| CCCc1[nH]n(-c2ccc([N+](=O)[O-])cc2)c(=O)c1C=NCCc1ccc(OC)c(OC)c1 | 0.794 µM [rising, partial curve, poor fit] | – |
| Cc1ccc(/C=C/C(=O)C2C(=O)c3ccccc3C2=O)cc1 | 1.78 µM [falling, full curve] | – |
| CCC(=O)c1ccc(CCCCCC(=O)O)s1 | 0.731 µM [falling, full curve, poor fit] | – |
| COc1ccccc1NC(=S)NC(=O)CCCOc1ccc(Cl)cc1Cl | 16.4 µM [falling, single point] | – |
| COc1ccc(/C=N/Nc2nc(C)c([N+](=O)[O-])c(N(C)c3ccccc3)n2)cc1OC | 20 µM [rising, partial curve, poor fit] | – |
| N#Cc1ccc(CSc2nnc(NC(=O)c3ccc4ncsc4c3)s2)cc1 | 35.5 µM [falling, single point] | – |
| CC[C@]12c3[nH]c4ccccc4c3CCN1C(=O)C(CC(=O)NCCCn1ccnc1)C[C@@H]2C(=O)N1CCN(C(=O)c2ccco2)CC1 (stereo not given in full) | 3.66 µM [rising, partial curve, poor fit] | – |
| CCc1ccccc1N(C)S(=O)(=O)c1ccc(-c2cc(C)no2)s1 | – | 11.2 µM [falling, partial curve, poor fit] |
| Cc1ccccc1NC(=O)CSc1nnc(-c2ccccn2)o1 | 6.31 µM [falling, partial curve, poor fit] | – |
| Fc1ccc(-n2c(-c3cccs3)nc3nc4ccccc4nc32)cc1 | 3.66 µM [rising, partial curve, poor fit] | – |
| O=c1cc2[nH]c3ccccc3c(=O)n2nc1-c1ccccc1 | 1.84 µM [falling, full curve] | – |
| COc1cccc(NC(=O)CN(C)C(=O)CCCc2nc3ccccc3c(=O)[nH]2)c1 | 1.84 µM [rising, single point] | – |
| CCC(=O)Nc1cccc(C(=O)Nc2nccs2)c1 | 5.62 µM [falling, partial curve, poor fit] | – |
| COc1ccc(NC(=O)CN(c2ccccc2)S(=O)(=O)N(C)C)cc1Cl | 35.5 µM [falling, single point] | – |

3 entries from above, arranged by molar mass, smallest number first.

| Structure (SMILES) | AC50 [1] | AC50 [2] |
| --- | --- | --- |
| Cc1ccc(/C=N/NC(=O)c2cccs2)cc1[N+](=O)[O-] | 12.6 µM [falling, partial curve] | – |
| Cc1ccc(/C=C/C(=O)C2C(=O)c3ccccc3C2=O)cc1 | 1.78 µM [falling, full curve] | – |
| CC1(C)C(C=C(Cl)Cl)C1C(=O)NC(O)C(=O)c1ccccc1 (stereo not given) | 15.8 µM [falling, partial curve, poor fit] | – |
